Source: publication PMC12856293 (The Journal of Biological Chemistry, 2025)

Sequences of proteins named here, by UniProt entry; tags and fusion partners are left off. Residues count along the entry.
UniProt P95232, 1-322: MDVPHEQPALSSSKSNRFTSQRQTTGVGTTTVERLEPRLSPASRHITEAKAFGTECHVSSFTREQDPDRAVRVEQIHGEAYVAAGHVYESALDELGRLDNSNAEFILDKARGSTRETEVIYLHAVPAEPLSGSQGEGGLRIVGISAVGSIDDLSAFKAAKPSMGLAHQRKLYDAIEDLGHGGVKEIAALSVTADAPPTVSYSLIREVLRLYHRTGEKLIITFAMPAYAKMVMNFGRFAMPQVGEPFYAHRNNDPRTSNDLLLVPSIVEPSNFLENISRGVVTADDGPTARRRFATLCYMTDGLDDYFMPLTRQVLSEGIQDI

Target: T1, TyzAMtb (Mycobacterium tuberculosis, UniProt P95232)
T1 construct: gene Rv2336

## N[C@@H](Cc1ccc(O)cc1)C(=O)O [L-Tyr]
  LC-QTOF endpoint product detection: we detected substantial amounts of C12:0-Tyr, C12:0-tyrazolone
